Target: EGFP (Aequorea victoria, UniProt P42212, F64L/H231L/S65T)
Format: biochemical
Settings: stated in the description
Experimental: (FIG. 7). […] A mouse hemisphere was treated with use of each 10 wt % chemical solution at 37° C. for 3 days, and was washed with PBS. Subsequently, the mouse hemisphere was subjected to refractive index adjustment with CUBIC-2A.

Compound: CC(C)(C)CC(C)(C)c1ccc(OCCOCC[N+](C)(C)Cc2ccccc2)cc1 [#0441, Benzethonium Chloride]
- retention of fluorescence of a fluorescent protein: allows fluorescence of a fluorescent protein to be retained

Reference: patent US20220381657A1, “METHOD FOR PREPARING BIOLOGICAL MATERIAL HAVING EXCELLENT LIGHT-TRANSMITTING PROPERTY” (RIKEN, priority 2016, published 2022)
